No constants are given. Whether binding was seen depends on the method and setting. Some results given as binding are weak or reduced against the parent protein; the word gives no strength.
Biological target: ATM/Tel1, basal state (Schizosaccharomyces pombe) (UniProt O74630)
Assay: SPR; CHK2 (full length or peptide) at varied concentrations on basal or active ATM/Tel1; both purified

Amino acid sequences for entries named in this document (tags omitted).
UniProt O74630: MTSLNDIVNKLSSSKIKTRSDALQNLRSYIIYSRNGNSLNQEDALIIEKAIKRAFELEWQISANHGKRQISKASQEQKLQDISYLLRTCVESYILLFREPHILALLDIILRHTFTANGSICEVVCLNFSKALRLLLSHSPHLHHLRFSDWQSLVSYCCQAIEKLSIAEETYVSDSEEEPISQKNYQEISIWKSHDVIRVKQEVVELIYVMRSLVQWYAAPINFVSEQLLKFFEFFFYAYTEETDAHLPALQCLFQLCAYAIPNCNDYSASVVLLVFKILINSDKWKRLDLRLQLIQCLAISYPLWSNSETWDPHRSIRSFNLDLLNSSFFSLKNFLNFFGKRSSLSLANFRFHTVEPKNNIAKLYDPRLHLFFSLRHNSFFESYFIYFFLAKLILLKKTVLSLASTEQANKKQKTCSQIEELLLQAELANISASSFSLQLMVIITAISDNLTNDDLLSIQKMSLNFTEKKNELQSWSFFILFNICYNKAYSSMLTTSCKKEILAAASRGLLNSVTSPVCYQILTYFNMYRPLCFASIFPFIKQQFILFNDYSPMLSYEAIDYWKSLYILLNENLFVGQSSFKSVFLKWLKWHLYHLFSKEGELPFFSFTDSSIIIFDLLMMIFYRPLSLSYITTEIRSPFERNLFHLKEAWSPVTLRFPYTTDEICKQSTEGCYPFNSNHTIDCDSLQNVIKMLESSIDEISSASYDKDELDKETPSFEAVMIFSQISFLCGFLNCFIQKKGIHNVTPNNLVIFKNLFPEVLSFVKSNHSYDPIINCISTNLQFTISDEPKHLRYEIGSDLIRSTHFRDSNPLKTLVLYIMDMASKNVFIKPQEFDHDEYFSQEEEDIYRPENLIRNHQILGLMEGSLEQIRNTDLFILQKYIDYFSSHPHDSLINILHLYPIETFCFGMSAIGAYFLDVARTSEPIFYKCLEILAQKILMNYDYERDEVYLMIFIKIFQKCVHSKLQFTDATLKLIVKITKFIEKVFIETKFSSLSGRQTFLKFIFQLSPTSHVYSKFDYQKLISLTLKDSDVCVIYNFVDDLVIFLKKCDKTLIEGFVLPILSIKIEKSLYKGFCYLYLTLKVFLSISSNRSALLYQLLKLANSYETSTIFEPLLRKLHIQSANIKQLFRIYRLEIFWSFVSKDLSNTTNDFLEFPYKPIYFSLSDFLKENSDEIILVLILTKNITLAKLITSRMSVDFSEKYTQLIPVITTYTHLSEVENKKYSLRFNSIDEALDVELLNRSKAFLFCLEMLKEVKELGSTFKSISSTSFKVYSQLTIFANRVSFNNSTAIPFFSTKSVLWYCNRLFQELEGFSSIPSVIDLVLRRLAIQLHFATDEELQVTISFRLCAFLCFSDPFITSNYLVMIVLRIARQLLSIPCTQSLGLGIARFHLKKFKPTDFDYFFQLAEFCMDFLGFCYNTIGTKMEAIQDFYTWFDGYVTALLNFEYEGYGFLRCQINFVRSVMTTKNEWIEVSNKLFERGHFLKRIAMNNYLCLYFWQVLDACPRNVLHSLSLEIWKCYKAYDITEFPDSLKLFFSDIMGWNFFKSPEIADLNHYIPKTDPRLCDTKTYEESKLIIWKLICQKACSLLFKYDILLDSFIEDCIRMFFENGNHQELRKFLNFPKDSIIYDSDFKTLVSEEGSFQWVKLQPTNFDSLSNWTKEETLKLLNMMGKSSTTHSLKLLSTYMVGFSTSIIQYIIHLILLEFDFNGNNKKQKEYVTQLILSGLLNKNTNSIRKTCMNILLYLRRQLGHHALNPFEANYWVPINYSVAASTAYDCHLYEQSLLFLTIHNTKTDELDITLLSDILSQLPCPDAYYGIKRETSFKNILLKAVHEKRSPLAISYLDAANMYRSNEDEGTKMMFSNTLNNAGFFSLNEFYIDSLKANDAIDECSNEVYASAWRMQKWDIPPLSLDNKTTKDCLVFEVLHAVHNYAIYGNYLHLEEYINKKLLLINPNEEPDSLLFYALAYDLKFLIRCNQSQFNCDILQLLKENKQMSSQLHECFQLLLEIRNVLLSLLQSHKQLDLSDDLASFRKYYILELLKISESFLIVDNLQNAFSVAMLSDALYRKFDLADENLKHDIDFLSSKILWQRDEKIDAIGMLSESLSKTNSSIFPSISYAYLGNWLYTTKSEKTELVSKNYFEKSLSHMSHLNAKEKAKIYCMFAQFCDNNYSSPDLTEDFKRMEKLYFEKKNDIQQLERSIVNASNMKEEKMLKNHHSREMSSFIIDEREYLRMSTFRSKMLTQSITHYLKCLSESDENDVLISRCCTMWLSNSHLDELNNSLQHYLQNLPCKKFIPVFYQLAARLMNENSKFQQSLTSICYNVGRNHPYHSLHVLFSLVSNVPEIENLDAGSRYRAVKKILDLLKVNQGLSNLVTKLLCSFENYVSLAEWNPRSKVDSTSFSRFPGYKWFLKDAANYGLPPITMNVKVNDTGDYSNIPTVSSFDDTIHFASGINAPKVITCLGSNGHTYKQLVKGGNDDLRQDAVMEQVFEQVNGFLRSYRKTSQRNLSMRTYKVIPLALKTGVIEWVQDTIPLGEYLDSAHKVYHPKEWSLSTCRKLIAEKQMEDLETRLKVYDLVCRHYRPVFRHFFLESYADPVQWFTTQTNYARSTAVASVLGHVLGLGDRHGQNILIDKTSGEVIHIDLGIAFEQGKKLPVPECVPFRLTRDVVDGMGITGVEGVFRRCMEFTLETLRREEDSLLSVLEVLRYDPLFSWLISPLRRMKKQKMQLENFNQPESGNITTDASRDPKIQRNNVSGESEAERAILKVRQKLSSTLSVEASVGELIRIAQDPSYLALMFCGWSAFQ
UniProt O96017: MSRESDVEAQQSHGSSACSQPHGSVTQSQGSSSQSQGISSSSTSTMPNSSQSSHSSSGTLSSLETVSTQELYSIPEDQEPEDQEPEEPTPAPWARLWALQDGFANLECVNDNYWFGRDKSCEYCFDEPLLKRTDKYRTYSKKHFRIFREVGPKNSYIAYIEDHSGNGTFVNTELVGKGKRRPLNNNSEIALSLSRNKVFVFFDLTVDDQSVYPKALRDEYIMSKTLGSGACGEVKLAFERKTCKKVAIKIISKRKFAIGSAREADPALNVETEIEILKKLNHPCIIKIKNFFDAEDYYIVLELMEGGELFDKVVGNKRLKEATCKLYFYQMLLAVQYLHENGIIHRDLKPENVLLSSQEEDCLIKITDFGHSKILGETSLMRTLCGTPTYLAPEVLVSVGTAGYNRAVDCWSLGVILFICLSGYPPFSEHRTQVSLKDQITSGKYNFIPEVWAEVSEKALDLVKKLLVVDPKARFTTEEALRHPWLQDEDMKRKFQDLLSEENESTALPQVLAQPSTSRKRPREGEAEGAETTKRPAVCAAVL

binding: binds
Substance: full-length CHK2 (from UniProt O96017 1-543)
